# The campaign covered roughly 340,000 compounds. About 6,200 (1.8%) were called active. The inconclusive results got no clear call from the source; some entries with a clear call stand among them for comparison. Calls come from the whole dose curve; as a rule, active = well fitted activation curve with a large enough effect; inconclusive = small, poorly fitted or top-dose-only effect; inactive = no such curve, though single readings can be large or run the other way. Where the call is inconclusive, the potency comes from a doubtful curve fit.
# Test: A quantitative high throughput screen for small molecules that induce DNA re-replication in SW480 colon adenocarcinoma cells. For re-replication activation: % of control where 0% means no effect. Note: nearly all actives have a fitted effect of over 55% in size.
# Settings: Hoechst DNA content imaging, 48 h; re-replication activation: at 46.1 µM (top of the series) unless noted
# Summary of the method: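 250 cells/well; 23 nL cpd via pin tool; 48 hr, 37 C, 5% CO2; Hoechst 40 min; imager read of total nuclear intensity, ex 405/em 500-530 nm.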
# Potency is the fitted concentration of half-maximal effect.
Structure (SMILES),Potency,re-replication activation
Cc1onc(-c2ccccc2Cl)c1C(=O)O/N=C(\N)c1ccccc1,"inconclusive: 23.1 µM [activator, single point]",–
OCCNCc1c(OCc2ccc(Cl)cc2)ccc2ccccc12,"inconclusive: 20.6 µM [activator, single point]",–
Fc1ccccc1N1CCN(c2cnc3ccccc3n2)CC1,–,inactive: -6.09%
CCCCCCCc1c(C#N)c(N)[nH]c(=S)c1C#N,–,inactive: -2.92%
CCCSc1nc2sc3c(c2c(=O)n1-c1ccc(OC)cc1)CCN(C)C3,active: 1.84 µM,–
COc1ccc(S(=O)(=O)N2CCN(C(=O)CCCN3C(=O)NC4(CCCC4)C3=O)CC2)cc1,"inconclusive: 29.1 µM [activator, single point]",–
CCOC(=O)C1=C(COC(=O)COc2cccc(C)c2C)NC(=O)NC1C (configuration not stated),–,inactive: -6.52%
COc1cc(CN(CC2CCCO2)C(=O)c2ccco2)cc(OC)c1OC (configuration not stated),"inconclusive: 29.1 µM [activator, single point]",–
Cc1cccc(NC(=S)N2CCN(c3cc(C)ccc3C)CC2)c1,–,inactive: -2.62%
COc1ccc(/C=N/NC(=O)CCc2nc3ccccc3[nH]2)cc1,"inconclusive: 0.116 µM [activator, full curve, poor fit]",–
CCOCCn1c(=NC(=O)CSCC(=O)N2CCOCC2)sc2cc(OC)ccc21,"inconclusive: 16.4 µM [activator, partial curve, poor fit]",–
Cn1c(SCC(=O)N/N=C/c2ccc([N+](=O)[O-])s2)nnc1-c1ccc(Cl)cc1,"inconclusive: 20.6 µM [activator, single point]",–
Cc1cc(C)n(-c2cc(N3CCN(C(=O)c4ccc(C(C)(C)C)cc4)CC3)ccc2[N+](=O)[O-])n1,"inconclusive: 29.1 µM [activator, single point]",–
COc1cc(C2c3cc4c(cc3OC(N3CCOCC3)C2C)OCO4)cc(OC)c1OC(C)=O (configuration not stated),"inconclusive: 29.1 µM [activator, single point]",–
CCn1nnnc1NCc1ccc(SC)cc1,–,inconclusive: 38.2% [activator]
CN(C)P(=NC(=O)COc1ccc(Cl)cc1Cl)(N(C)C)N(C)C,–,inactive: 0.0116%
CN1CCN/C1=C(/C(Cl)=C(Cl)Cl)[N+](=O)[O-],"inconclusive: 29.1 µM [activator, single point]",–
Cc1ccc(C2(C)NC(=O)N(CC(=O)Nc3nc(-c4ccccn4)cs3)C2=O)cc1 (configuration not stated),"inconclusive: 20.6 µM [activator, single point]",–
O=C(COC(=O)Cc1ccc(F)cc1)NC(=O)NC1CCCC1,"inconclusive: 29.1 µM [activator, single point]",–
CC(=O)c1cccc(NC(=O)/C=C/c2ccc([N+](=O)[O-])s2)c1,active: 2.91 µM,–
CN(CC(=O)Nc1ccc(F)cc1)C(=O)CCc1nc2ccccc2c(=O)[nH]1,–,inactive: -1.73%
c1ccc(CNCCCNCCCCNCCCNCc2ccccc2)cc1,"inconclusive: 4.11 µM [activator, single point]",–
Cc1ccc(-c2csc3nnc(SCC(=O)Nc4cccc(C)n4)n23)cc1,–,inactive: -1.65%
O=[N+]([O-])c1cc(/C=N/O)ccc1Oc1cccc(Cl)c1,"inconclusive: 0.231 µM [activator, full curve, poor fit]",–

Structure (SMILES),Potency,re-replication activation
Cc1ccc(N(CCC#N)C(=O)CSc2nc3ccccc3c(=O)[nH]2)cc1,–,inactive: 10.6%
CN(C)c1ccc(/C=C2\CCC/C(=C\c3ccccc3)C2=O)cc1,–,inactive: 15.4%
CCN1C(=NCCOC)N[C@@H](c2cccc(F)c2)C(C(=O)OC)=C1C,–,inactive: -24.1% [at 9.22 µM]
COc1ccc(/C=C/C(=O)c2ccc3c(c2)OCCO3)cc1[N+](=O)[O-],active: 11.6 µM,–
COc1ccc(NC(=O)c2cc3c(-c4ccc(OC)c(OC)c4)nn(C)c3s2)cc1OC,"inconclusive: 16.4 µM [activator, partial curve, poor fit]",–
CCc1c(C)sc(NC(=O)c2ccco2)c1C(=O)N1CCOCC1,"inconclusive: 0.1 µM [activator, full curve, poor fit]",–
COc1ccc(/C=N/NC(N)=S)cc1OC(=O)c1ccccc1,"inconclusive: 23.1 µM [activator, single point]",–
COc1ccc(OC)c(N2C(=O)CC(NNC(=O)c3ccc4c(c3)OCO4)C2=O)c1 (configuration not stated),–,inactive: -27.4%
COc1ccccc1CN1CC(C(=O)NCCn2ccc(C)n2)CCC1=O (configuration not stated),"inconclusive: 29.1 µM [activator, single point]",–
C/C(=N/NC(=O)c1ccccc1)C1=C(O)CC(C)(C)CC1=O,"inconclusive: 4.61 µM [activator, partial curve, poor fit]",–
COc1ccc(/C=N/NC(=O)c2cccnc2)cc1CSc1ccccn1,active: 13 µM,–
CN(CC(=O)Nc1ccccc1Cl)C(=O)Cn1cc(C(F)(F)F)ccc1=O,–,inactive: -3.06%
Cc1noc(NS(=O)(=O)c2ccc(NC(=O)/C=C/c3ccc(Br)cc3)cc2)c1C,"inconclusive: 29.1 µM [activator, single point]",–
O=C(Nc1nccs1)c1cn2ccccc2n1,"inconclusive: 6.51 µM [activator, partial curve, poor fit]",–
C=CCNC(=S)NNC(=O)C(CCCC)CC(C)(C)O (configuration not stated),"inconclusive: 16.4 µM [activator, partial curve]",–
Cc1ccc(N=C2NC(=O)/C(=C\c3ccc(C)s3)S2)cc1,–,inactive: 0.932%
O=C(NCC1CCCO1)c1ccc(Cl)c(S(=O)(=O)Nc2ccccc2)c1 (configuration not stated),"inconclusive: 16.4 µM [activator, single point]",–
N#Cc1c(-c2cccc(Br)c2)cc(-c2cccnc2)nc1N,"inconclusive: 0.231 µM [activator, full curve, poor fit]",–
CC(C)=CCCC(C)NC(=O)NC1CCCCC1 (configuration not stated),–,inactive: 0.5% [at 9.22 µM]
COc1cc2[nH]c(=O)n(CCC(=O)N3CCN(c4cc(Cl)ccc4C)CC3)c(=O)c2cc1OC,"inconclusive: 29.1 µM [activator, single point]",–
CC(C)OP(=O)(c1ccccc1)c1ccccc1,–,inactive: -4.18%
Nc1ccc(C2(c3ccc(N)cc3)c3ccccc3C(=O)c3ccccc32)cc1,"inconclusive: 16.4 µM [activator, single point]",–
COc1ccc(N2C(=O)C3C(C2=O)C3(c2ccccc2)c2ccccc2)cc1 (configuration not stated),–,inactive: -1.72%
Cc1ccc(C(c2nnnn2CCc2ccccc2)N2CCC(C)CC2)cc1 (configuration not stated),–,inactive: 27.6%

Structure (SMILES),Potency,re-replication activation
CCOc1ccc(-c2nc(CSCC(=O)NC3CCCc4ccccc43)c(C)o2)cc1 (configuration not stated),"inconclusive: 18.4 µM [activator, partial curve, poor fit]",–
CC(=O)c1c(-c2ccccc2)[nH]c2ccccc12,"inconclusive: 18.4 µM [activator, single point]",–
Cc1ccc(SCC2(O)CCN(S(=O)(=O)c3ccc(Cl)cc3)CC2)cc1,–,inactive: 7.32%
CCC1=C(CC2NCCc3ccccc32)CC2c3cc(OC)c(OC)cc3CCN2C1 (configuration not stated),"inconclusive: 3.26 µM [activator, full curve]",–
CCCCCCCNC(=O)C1(CC2CC(c3cccc(Br)c3)=NO2)CCNCC1 (configuration not stated),–,inactive: 5.49%
Cc1ccccc1OCc1ccc(C(=O)N2CC(C)OC(C)C2)o1 (configuration not stated),"inconclusive: 1.16 µM [activator, partial curve, poor fit]",–
Cc1ccc(C(=O)N2CCCC(c3ccc(Cl)cc3)=N2)cc1,"inconclusive: 14.6 µM [activator, single point]",–
CC(C)NS(=O)(=O)c1ccc(NC(=S)NC(=O)c2ccc(-c3ccccc3)cc2)cc1,"inconclusive: 29.1 µM [activator, single point]",–
Cc1ccc(CS(=O)Cc2ccc(C(=O)N3CCN(c4ccccc4)CC3)o2)cc1 (configuration not stated),–,inactive: -10.5%
CC(/C=C/c1ccc(O)cc1)=NNc1ccccc1,"inconclusive: 23.1 µM [activator, single point]",–
Cc1nc2ccccc2c(=O)n1NC(=O)c1c(O)c2c(n(CC(C)C)c1=O)CCCC2,"inconclusive: 20.6 µM [activator, single point]",–
CN(C)c1ccc(Nc2nc(N)c([N+](=O)[O-])c(N3CCOCC3)n2)cc1,"inconclusive: 16.4 µM [activator, partial curve, poor fit]",–
CC1(C)CC(=O)C=C(Nc2ccc(Cl)c(Br)c2)C1,"inconclusive: 29.1 µM [activator, single point]",–
COc1ccc(-c2cc(C(F)F)n3ncc(C(=O)Nc4cc(C)on4)c3n2)cc1,"inconclusive: 16.4 µM [activator, single point]",–
CCC(=O)Nc1ccc(C(=O)OCc2ccc(Cl)c(Cl)c2)cc1,–,inactive: -2.86%
CCc1cc2c(=O)c(-c3cscn3)coc2c(CN(C)C)c1O,"inconclusive: 20.6 µM [activator, partial curve, poor fit]",–
CN(C)c1ccc(N=Nc2ccccc2C(=O)OCC(=O)NCC2CCCCC2)cc1,–,inactive: 16.6%
O=C1OC(/C(=C\Nc2cc(Cl)ccc2O)[N+](=O)[O-])c2ccccc21 (configuration not stated),"inconclusive: 20.6 µM [activator, single point]",–
O=C(CCc1c[nH]c2ccccc12)N/N=C/c1ccc2c(c1)OCO2,–,inactive: -11.8%
Cn1c(=O)[nH]c(=O)c2c1nc(N1CCNCC1)n2Cc1ccccc1Cl,–,inactive: -37.9%
CCOC(=O)/C=C1\SCC(=O)N1CC(=O)Nc1ccc2c(c1)CCC2,"inconclusive: 3.26 µM [activator, full curve]",–
N#CCc1ccc(Oc2ncccn2)cc1,–,inactive: -8.45%
Cc1noc(/C=C/N(C)C)c1S(=O)(=O)N1CCCC(C(=O)NCc2ccc(Cl)cc2)C1 (configuration not stated),–,inactive: 1.65%
CC1Cc2nc(SCC(=O)NCC3CCCO3)n(Cc3ccccc3)c(=O)c2S1 (configuration not stated),–,inactive: -10.4%

# Ordered by length of the SMILES (ascending): 4 of the compounds above.
Structure (SMILES),Potency,re-replication activation
Cn1c(=O)[nH]c(=O)c2c1nc(N1CCNCC1)n2Cc1ccccc1Cl,–,inactive: -37.9%
CC1Cc2nc(SCC(=O)NCC3CCCO3)n(Cc3ccccc3)c(=O)c2S1 (configuration not stated),–,inactive: -10.4%
CCC1=C(CC2NCCc3ccccc32)CC2c3cc(OC)c(OC)cc3CCN2C1 (configuration not stated),"inconclusive: 3.26 µM [activator, full curve]",–
Cc1nc2ccccc2c(=O)n1NC(=O)c1c(O)c2c(n(CC(C)C)c1=O)CCCC2,"inconclusive: 20.6 µM [activator, single point]",–
